Data from patent US10786450B2, “Process for preparing a dry powder formulation comprising an anticholinergic, a corticosteroid and a beta-adrenergic” (CHIESI FARMACEUTICI S.p.A., priority 2017, dated 2020).
Structures can show the parent of a compound that is named as a salt.

Columns and labels:
[1] = micronized active ingredient as used in Example 3
[2] = Uniformity of distribution of the active ingredients in the powder blend by HPLC; type: physicochemical; settings: Example 3 powder formulation; 10 samples from different parts of the blend; mean value±RSD

## COc1ccc(CC(C)NCC(O)c2ccc(O)c(NC=O)c2)cc1 (stereo not shown) [FF, formoterol fumarate dihydrate]
[1]
  d(v0.1): 0.9 micron
  d(v0.5): 2.3 micron
  d(v0.9): 4.2 micron
[2]
  Uniformity of distribution: 100.5 (±1.5)
